The list shows a part of the results.
B1: il2ra_site1_1z92_sap_14_mot_3afbd42359c492d9a5ba12d7e5b15de5_0001_000000167_0001_17_33_H_._HHH_b1_03999_0001_0000300027_0000001_0_0001_af2pred_0001_af2pred (protein)
chain: SEEVEFDLELAKKRGIPPRSVVRAVLSALKSLGIPPEEALELVREALERLNDPELEKVLEELKEK
B2: il2ra_site1_3nfp_sap_20_mot_HHH_b1_05070_af2_000000282_0001_43_57_H_._HHH_b2_02281_0001_0000300009_0000001_1_0001 (protein)
chain: DLEEILERIEEILEELNTKMARDLLRAIEWLKRAAPPEEVIKAILWAAEAAGDPEVVRLLREAVK
B3: il2ra_site2_3nfp_sap_15_mot_HHH_b1_03180_000000083_0001_40_56_H_._0f396a3c5b789435df01682a1ed80b82_0001_1_af2_0001_0000100005_0000001_0_0001 (protein)
chain: SSSSDEHKELIRKALEALEAAVEEGDEETFELLTEYLRAAIELANDPELRERLEELEERISSSSS
B4: il2ra_site1_3nfp_normal_mot_HHH_b1_01335_af2_000000105_0001_39_53_H_._HHH_b2_06296_0001_0000500034_0000001_0_af2pred_0001_af2pred_swapped (protein)
chain: SSSSDEEEEEVRELLRQAEEAEEEGDTEKALELVEEAERLAREIDNPELYEEVLEVLRRIASSSS
B5: il2ra_site2_3nfp_normal_mot_HHH_b1_02297_000000279_0001_41_58_H_._HHH_b2_05334_af2_0001_0000500026_0000001_0 (protein)
chain: SSSSEEERVEELIEEAERLLKEGDPEEARRVVARAAHIAFQLNNFELFALVNELAELIIRLSSSS
B6: il2ra_site1_1z92_normal_mot_HHH_b1_08597_af2_000000202_0001_42_56_H_._6e12af4a48b4634929ba45889b8be782_0001_0001_0000600034_0000001_0 (protein)
chain: NVEWAIENLERLARLQGNPEVERVLRRVLELLKKNEEEAEEFLEELVRELGDKLLRLLLRMLKTA
B7: il2ra_site1_2b5i_normal_mot_HHH_b1_01419_af2_000000080_0001_42_53_H_._HHH_b2_02924_af2_0001_0000200024_0000001_0 (protein)
chain: SSSSSNEEVQELFLEASRAFRKGDQEEAERILEEALKLAREAGNEREERQIEFMIKRVRGSSSSS
B8: il2ra_site2_2erj_normal_mot_6d5f7cbc25fed124e3eb7f952334b9cf_0001_af2_000000048_0001_1_13_H_._HHH_b1_00839_0001_0000100007_0000001_0 (protein)
chain: SSSSDEEEKLSREIFEEARRLFKEGNIEEARELVEEAIRLAEELNDPAILAALRALLRILESSSS
B9: il2ra_site1_1z92_normal_mot_HHH_b1_05598_af2_000000231_0001_1_16_H_._HHH_b2_05789_af2_0001_0000300041_0000001_0 (protein)
chain: SSSSSDEEELDEEAQELFHEAARIDDEEEVRRLLEEALELAREGNDENIARDLEQYLRALSSSSS
B10: il2ra_site1_2b5i_normal_mot_f5ff40796168375b462bec8614a1db4a_0001_1_000000138_0001_53_65_H_._HHH_b1_01842_0001_0000200006_0000001_0_af2pred_0001_af2pred_1 (protein)
chain: SSSSSDEELLQQSAEELIEEAKRIEDPERAQAILSLALSAARKANDEELEEEIEELLEELSSSSS
B11: il2ra_site2_3nfp_normal_mot_HHH_b2_07840_000000026_0001_18_34_H_._HHH_b2_06318_af2_0001_0000100003_0000001_1_af2pred_0001_1_af2pred_swapped (protein)
chain: SSSSDEEELKELKEELERLAKEGDYEELEELLKEAAQIAAEEGDEELFALVTELLELVLRYSSSS
B12: il2ra_site2_3nfp_sap_21_mot_HHH_b1_04781_af2_000000057_0001_1_18_H_._4439246daae91da06a95c8dcf57bacfb_0001_af2_0001_0000300023_0000001_0_0001 (protein)
chain: SSSSSEEAEELLKEAKEALEEGDLAKATHLAVRASEIALKLNDEELLREIMKLYEELARRYSSSS
B13: il2ra_site1_2b5i_normal_mot_HHH_b1_01495_af2_000000272_0001_42_56_H_._HHH_b2_01987_af2_0001_0000200003_0000001_1 (protein)
chain: SSSSSSDEAAELFLEASRLIQRGNQEEAKELLEEAIKIARELGNEKTVKDLEHMLERLSSSSSSS
B14: il2ra_site1_2b5i_sap_16_mot_HHH_b1_00326_af2_000000000_0001_40_56_H_._HHH_b1_04725_0001_0000500021_0000001_0_0001_af2pred_0001_af2pred (protein)
chain: SSSSDAAKEAARLFREANEAYRNGNPEEARKLLEKAEELAEEGNNKSLVRAIRDALEQLESSSSS
B15: il2ra_site2_3nfp_normal_mot_HHH_b2_03978_000000149_0001_1_20_H_._HHH_b2_05280_0001_0000700015_0000001_0 (protein)
chain: SSSSDEEEELEELRRQLEEAVEEGDPEAVAELALKASALAFELGDHEFFAEISEIFHRFFSSSSS
B16: il2ra_site1_3nfp_normal_mot_HHH_b2_04693_000000156_0001_1_17_H_._145601744709a037d9715a1ced05e5a7_0001_1_0001_0000200010_0000001_1 (protein)
chain: SAEERVKEAKELVPPELQELLERALELAHKRQDPKLAELLIRAVAAIQLGDPEKAEEVLKELEER
B17: il2ra_site2_2erj_sap_19_mot_87b7e031a888ead1881e674a44c3f2a3_0001_1_af2_000000022_0001_37_50_H_._HHH_b2_05123_0001_0000200011_0000001_0_0001 (protein)
chain: SSSSNEKLKRLYELANRLLKLVSEGDEEEFQEVFEELERLIEELNSDTARRFLERLRRLLHSSSS
B18: il2ra_site1_2b5i_normal_mot_HHH_b2_04910_000000118_0001_1_19_H_._HHH_b1_01775_0001_0000400021_0000001_0 (protein)
chain: SSSSSDSEEAQELFKEADELDRQGDEEEARRVLEQALELAEEGGSPQLFKMIESALRQLGSSSSS
B19: il2ra_site1_2b5i_normal_mot_HHH_b2_04910_000000118_0001_1_19_H_._HHH_b2_00346_af2_0001_0000700011_0000001_0_af2pred_dldesign_0_af2pred (protein)
chain: SSSSSPEIRRALELFRQAEAAFKAGDEATARALLEEALKLVEAAGAKLLAKIIKNALEQIGSSSS

target: il2ra, P01589; experiment: yeast display titration

Apparent Kd, inactive:
B1 > 755 nM
B2 no binding seen
B3 no binding seen
B4 no binding seen
B5 no binding seen
B6 > 311 nM
B7 no binding seen
B8 no binding seen
B9 no binding seen
B10 no binding seen
B11 no binding seen
B12 no binding seen
B13 no binding seen
B14 no binding seen
B15 no binding seen
B16 no binding seen
B17 no binding seen
B18 no binding seen
B19 no binding seen

For convenience, some entries already given.
Apparent Kd, inactive:
B12 no binding seen
B13 no binding seen
